No constants are given. Whether binding was seen depends on the method and setting. For some of these results: Binding seen in cells or lysates may run through a third protein. Some results given as binding are weak or reduced against the parent protein; the word gives no strength. For some of these results: Sequences can lack the tags named with a protein.

Amino acid sequences for entries named in this document (tags omitted).
UniProt O43474: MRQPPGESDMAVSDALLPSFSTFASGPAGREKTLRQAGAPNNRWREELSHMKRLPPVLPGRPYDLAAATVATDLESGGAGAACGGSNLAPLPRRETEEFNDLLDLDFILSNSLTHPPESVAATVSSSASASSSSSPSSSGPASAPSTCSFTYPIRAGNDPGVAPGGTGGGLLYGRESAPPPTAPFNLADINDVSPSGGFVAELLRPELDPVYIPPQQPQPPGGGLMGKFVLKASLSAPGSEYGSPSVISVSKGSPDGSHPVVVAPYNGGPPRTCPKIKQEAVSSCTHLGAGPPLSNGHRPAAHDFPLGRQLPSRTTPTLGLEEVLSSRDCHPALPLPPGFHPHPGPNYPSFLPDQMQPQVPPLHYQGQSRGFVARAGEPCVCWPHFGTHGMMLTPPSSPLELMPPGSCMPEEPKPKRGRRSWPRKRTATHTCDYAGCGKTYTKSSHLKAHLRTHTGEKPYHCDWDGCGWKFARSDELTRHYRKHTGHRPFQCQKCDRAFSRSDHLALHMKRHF

Experiment [1] concerns the target T1, Flag-ITIH5 (inter-alpha-trypsin inhibitor heavy chain 5) (UniProt Q86UX2).
T1 sequence: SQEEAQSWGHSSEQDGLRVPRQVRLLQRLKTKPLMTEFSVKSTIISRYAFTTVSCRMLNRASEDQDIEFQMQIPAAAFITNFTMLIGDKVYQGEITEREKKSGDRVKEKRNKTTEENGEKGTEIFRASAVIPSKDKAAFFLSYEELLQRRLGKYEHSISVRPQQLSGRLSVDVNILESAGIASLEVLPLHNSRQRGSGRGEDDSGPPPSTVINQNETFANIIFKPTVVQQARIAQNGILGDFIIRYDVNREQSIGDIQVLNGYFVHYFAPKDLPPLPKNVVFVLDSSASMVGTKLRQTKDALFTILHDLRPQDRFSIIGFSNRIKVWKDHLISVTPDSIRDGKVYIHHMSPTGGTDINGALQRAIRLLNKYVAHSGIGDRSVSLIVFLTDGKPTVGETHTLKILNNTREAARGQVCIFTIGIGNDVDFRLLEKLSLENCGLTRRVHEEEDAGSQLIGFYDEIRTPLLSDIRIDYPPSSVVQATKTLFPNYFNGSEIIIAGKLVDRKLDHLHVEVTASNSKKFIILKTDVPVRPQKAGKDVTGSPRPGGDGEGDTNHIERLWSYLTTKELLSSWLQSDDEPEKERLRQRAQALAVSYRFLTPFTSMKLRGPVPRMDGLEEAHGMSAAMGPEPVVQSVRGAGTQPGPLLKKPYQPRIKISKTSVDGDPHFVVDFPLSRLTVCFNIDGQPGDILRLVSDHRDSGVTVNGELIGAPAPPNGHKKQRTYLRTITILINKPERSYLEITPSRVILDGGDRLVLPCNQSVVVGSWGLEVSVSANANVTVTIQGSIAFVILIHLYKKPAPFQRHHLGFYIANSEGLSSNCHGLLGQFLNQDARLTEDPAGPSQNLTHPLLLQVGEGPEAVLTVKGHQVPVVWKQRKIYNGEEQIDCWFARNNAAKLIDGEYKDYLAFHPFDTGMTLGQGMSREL
Kind of experiment: co-IP; Flag-ITIH5 and GFP-KLF4 cotransfected into 293T cells; lysates (1% NP40 lysis buffer) immunoprecipitated with anti-Flag or anti-GFP, protein A/G agarose, 4 °C.

The target of experiment [2] is GFP-KLF4 (Krüppel-like factor 4) (UniProt O43474). The experiment is described as above.
In a further experiment the target is GST-KLF4 (UniProt O43474). Briefly: pull-down; GST or GST-KLF4 bound to GST agarose beads incubated with Flag-ITIH5 purified from HEK293T cells, 6 h at 4 °C (legend: 12 h), washed four times with PBS, western blot with Flag antibody; both purified. For orientation: Immunoblotting shows a protein as a band on a membrane.
In experiment [3] the target is KLF4, endogenous in Mel-RM and Mel-CV cells (human (endogenous in Mel-RM and Mel-CV)) (UniProt O43474). Briefly: co-IP; endogenous proteins; Mel-RM and Mel-CV lysates immunoprecipitated with control IgG or anti-KLF4.

Turning to “GFP-KLF4 (Krüppel-like factor 4) (from UniProt O43474 1-513)”, the binding entry in experiment [1] is “binds”.

B1: Flag-ITIH5 (inter-alpha-trypsin inhibitor heavy chain 5) (protein, UniProt Q86UX2 17-942)
chain: T1 sequence
Turning to B1, the binding result (in experiment [2]; with GST-KLF4) was “binds” each time.

B2: ITIH5, endogenous in Mel-RM and Mel-CV cells (protein, UniProt Q86UX2 17-942)
chain: T1 sequence
In the case of B2, the binding result in experiment [3] was “binds”.

The values are drawn from paper PMC8089095.
